Laboratory results as given in publication PMC11719606, “Exploring the Inhibition of Toxoplasma gondii α-Carbonic Anhydrase by Sulfonamides: Insights into Potential Drug Targeting” (International Journal of Molecular Sciences, 2024).
pKi: −log10 of the molar value. Like-named read-outs stand apart in the source and are kept apart here.

Molecular target: T1, Tg_CA (Toxoplasma gondii, UniProt S8F479)
T1 construct: gene TGME49_259950; alpha-CA domain, residues 487-830 of an 861-residue protein; E. coli BL21(DE3) codon-plus; about 47 kDa
T1 sequence (S8F479 487-830): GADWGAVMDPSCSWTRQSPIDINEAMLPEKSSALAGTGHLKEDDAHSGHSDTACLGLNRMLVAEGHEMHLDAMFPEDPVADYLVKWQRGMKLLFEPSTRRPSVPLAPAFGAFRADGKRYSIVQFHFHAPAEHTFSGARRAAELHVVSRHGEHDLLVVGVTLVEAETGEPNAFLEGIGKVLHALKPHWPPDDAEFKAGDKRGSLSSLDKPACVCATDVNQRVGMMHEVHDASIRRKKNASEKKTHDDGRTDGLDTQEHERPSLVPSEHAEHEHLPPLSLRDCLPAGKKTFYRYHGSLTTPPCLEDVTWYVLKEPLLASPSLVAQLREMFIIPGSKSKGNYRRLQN
Assay: stopped-flow CO2 hydration, phenol red, Cheng-Prusoff
Type: biochemical

Row | SMILES | Ki (read-out: KI (nM) ^a / Tg_CA) | pKi
1 | CC(=O)Nc1nnc(S(N)(=O)=O)s1 [AAZ, Acetazolamide] | 45.7 nM | –
2 | CCN[C@H]1C[C@H](C)S(=O)(=O)c2sc(S(N)(=O)=O)cc21 [DZA] | – | 7.02
